Measurements as given in the supplement of paper PMC6143611.
± gives the uncertainty stated by the source. The list shows a part of the results. Plates or batches differ in their baseline, so values are only roughly comparable.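 Larvae carried a heat-shock-induced fluorescent stripe in rod outer segments, set at 6 dpf; the shedding distance runs from this stripe to the outer segment tip, measured in confocal stacks, about three fish per compound. The controls got 0.2% DMSO vehicle, and the paper flagged compounds with at least a 20% change against the same-week control and p < 0.001 (Dunnett test on mixed-effects models).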

Columns and labels:
[1] = system: Danio rerio larva rod photoreceptor outer segment; assay: rod outer segment growth distance Dg, difference from same-week DMSO control mean; higher = more outer segment growth; settings: 20 µM; treatment time: 4 days (6-10 dpf)
[2] = system: Danio rerio larva rod photoreceptor outer segment; assay: rod outer segment shedding distance Ds, difference from same-week DMSO control mean; higher = less outer segment shedding; settings: 20 µM; treatment time: 4 days (6-10 dpf)

| SMILES | rod outer segment growth distance Dg [1] | rod outer segment shedding distance Ds [2] |
| --- | --- | --- |
| N#Cc1c(O)c2c(-c3ccc(-c4ccccc4O)cc3)csc2[nH]c1=O | 0.07 ± 0.16 um | -0.13 ± 0.15 um |
| O=C(CCc1ccc(O)cc1)c1c(O)cc(O)cc1O [Phloretin] | -2.94 ± 1 um | -3.01 ± 1.1 um |
| C#Cc1cccc(Nc2ncnc3cc(OCCOC)c(OCCO)cc23)c1 | 0.57 ± 0.24 um | -0.15 ± 0.35 um |
| COc1ccc([C@]2(C#N)CC[C@@H](C(=O)O)CC2)cc1OC1CCCC1 [Cilomilast] | -0.26 ± 0.19 um | -0.45 ± 0.18 um |
| CCCC1O[C@@H]2C[C@H]3[C@@H]4CCC5=CC(=O)C=C[C@]5(C)[C@H]4[C@@H](O)C[C@]3(C)[C@]2(C(=O)CO)O1 (some centres undefined) [Budesonide] | -0.75 ± 0.14 um | 0.36 ± 0.17 um |
| CNC(=O)c1ccc(C)c(-n2c(C)cc(OCc3ccc(F)cc3F)c(Br)c2=O)c1 | -0.34 ± 0.16 um | -0.19 ± 0.12 um |
| CC1(C)O[C@@H]2C[C@H]3[C@@H]4C[C@H](F)C5=CC(=O)C=C[C@]5(C)[C@@]4(F)[C@@H](O)C[C@]3(C)[C@]2(C(=O)CO)O1 [Fluocinolone Acetonide] | 0 ± 0.3 um | -0.14 ± 0.32 um |
| O=C(O)c1cccnc1Nc1cccc(C(F)(F)F)c1 [Niflumic acid] | 0.5 ± 0.17 um | -0.14 ± 0.16 um |
| Cc1ccc(S(=O)(=O)NC(=O)NN2CC3CCCC3C2)cc1 (centres undefined) [Gliclazide] | -0.78 ± 0.25 um | -0.7 ± 0.15 um |
| CCS(=O)(=O)c1cccc(-c2cc(C(=O)NC3CCN(C)CC3)c(C)c3[nH]c4ncc(C)cc4c23)c1 | -0.63 ± 0.17 um | -0.33 ± 0.12 um |
| Cc1ccc(Sc2cncc3sc(C(N)=O)cc23)cc1 | -1.09 ± 0.34 um | 0.26 ± 0.17 um |
| O=C(O)c1ccc2c(c1)nc(Nc1cccc(Cl)c1)c1ccncc12 [CX-4945 (Silmitasertib)] | 0.12 ± 0.31 um | -0.36 ± 0.3 um |
